For the test, the target named is T1, Pcm1-myc (S. pombe) (UniProt O74880).
T1 sequence: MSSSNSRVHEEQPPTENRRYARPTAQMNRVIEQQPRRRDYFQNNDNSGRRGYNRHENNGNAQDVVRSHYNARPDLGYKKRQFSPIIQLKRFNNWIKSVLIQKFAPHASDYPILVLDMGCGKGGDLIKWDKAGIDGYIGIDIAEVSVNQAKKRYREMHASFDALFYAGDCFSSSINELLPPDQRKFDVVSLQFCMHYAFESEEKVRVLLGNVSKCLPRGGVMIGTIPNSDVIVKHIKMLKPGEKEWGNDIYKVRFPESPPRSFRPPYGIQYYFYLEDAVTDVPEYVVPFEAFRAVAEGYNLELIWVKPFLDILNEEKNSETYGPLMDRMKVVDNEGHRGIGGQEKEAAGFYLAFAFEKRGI
Briefly: co-IP; lysates of S. pombe pcm1-myc (CS145) or cdk9^as pcm1-myc (CS165) strains incubated with anti-myc-bound protein G beads or protein G alone (mock); immunoprecipitates analysed by immunoblotting and for Rpb1-CTD kinase activity.

These are yes or no findings as the source states them, for the method shown. In cells and extracts the contact can be indirect. Some binding calls cover weakened binding; strength is not graded here. Where a sequence is shown, tags or fusion partners need not be part of it.

B1: Cdk9 (enzyme, UniProt Q96WV9 1-591)
chain: MKRSSSVSVEDEKSARRKLDVVPKLHFVGCSHLTDYHLMEKLGEGTFGEVYKSQRRKDGKVYALKRILMHTEKEGFPITAIREIKILKSIKHENIIPLSDMTVVRADKKHRRRGSIYMVTPYMDHDLSGLLENPSVKFTEPQIKCYMKQLFAGTKYLHDQLILHRDLKAANLLIDNHGILKIADFGLARVITEESYANKNPGLPPPNRREYTGCVVTRWYRSPELLLGERRYTTAIDMWSVGCIMAEMYKGRPILQGSSDLDQLDKIFRLCGSPTQATMPNWEKLPGCEGVRSFPSHPRTLETAFFTFGKEMTSLCGAILTLNPDERLSASMALEHEYFTTPPYPANPSELQSYSASHEYDKRRKREQRDANSHAFEQTANGKRQFRFMTRGPSDPWYGIRRPNYNSQPQYQRGSYNREGGNMDRSRNVNYQPKRQQNFKPLTSDLPQKNSEFSETNAMNQTSNHSHADGQRYYRPEQDRSQRLRNPSDYGRQGRQSSQSQQPAWNVSSRYQNNSKVQTTSRASENADTNKTQHNIKYIDSYVPEYSIARQSANQKTNEQHPSSTSLHQQSTSDLKSPSFHENSNVDDTPK
B1: the binding result is on record as “binds”.

For the origin of these results see article PMC3410854.
